Values of other authors, collected in patent US20240253033A1, “MICROFLUIDIC DETECTION SYSTEM WITH ADJUSTABLE FLOW CONTROL” (priority 2022, published 2024).

Tested on: serum proteins
Conditions: human serum; cited from earlier work

Structure (SMILES): O=C(O)c1cn(C2CC2)c2cc(N3CCNCC3)c(F)cc2c1=O [Ciprofloxacin]
- drug bounded to serum proteins: 28%
